Test results published in paper PMC10644598.
Substitutions are numbered along the chain they refer to. Names may count otherwise. Results are given in words; binding and its absence hold for the method and conditions named. Binding seen in cells or lysates may run through a third protein. Some binding calls cover weakened binding; strength is not graded here. Tags and fused reporters may be left off the sequences shown. One block for each binder: values may come before it.

Amino acid sequences for entries named in this document (tags omitted).
UniProt Q9Y5K6: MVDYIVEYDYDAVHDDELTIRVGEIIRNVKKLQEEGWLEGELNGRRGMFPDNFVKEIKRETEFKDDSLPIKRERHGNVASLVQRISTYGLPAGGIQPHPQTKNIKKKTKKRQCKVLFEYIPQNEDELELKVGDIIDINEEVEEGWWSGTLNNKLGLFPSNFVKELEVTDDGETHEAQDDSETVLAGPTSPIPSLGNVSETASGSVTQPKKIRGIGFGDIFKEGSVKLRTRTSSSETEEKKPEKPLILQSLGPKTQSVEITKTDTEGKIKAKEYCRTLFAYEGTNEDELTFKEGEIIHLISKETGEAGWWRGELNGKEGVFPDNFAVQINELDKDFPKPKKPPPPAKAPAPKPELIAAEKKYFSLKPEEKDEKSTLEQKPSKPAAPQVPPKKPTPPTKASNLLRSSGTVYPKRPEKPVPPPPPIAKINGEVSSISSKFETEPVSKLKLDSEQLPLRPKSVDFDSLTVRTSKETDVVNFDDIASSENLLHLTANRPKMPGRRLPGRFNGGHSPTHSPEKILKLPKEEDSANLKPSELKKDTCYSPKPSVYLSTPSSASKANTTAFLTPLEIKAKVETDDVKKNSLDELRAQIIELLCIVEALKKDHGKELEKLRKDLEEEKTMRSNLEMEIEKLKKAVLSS

Molecular target: CD2 association protein (CD2AP) (human (endogenous in HEK293T)) (UniProt Q9Y5K6)
Assay: co-IP; HEK293T cells transfected with Flag Vector, Flag-WT or Flag-E841K and lysed at 48 h; protein A/G beads pre-incubated with CD2AP overnight were added to the supernatant, 4 °C overnight; five washes with RIPA buffer; blot for Flag and CD2AP; the results call it a pull-down

binding: binds
B1: Flag-WT (ANLN, anillin, wild type) (protein, UniProt Q9NQW6-1 1-1124)
chain: MDPFTEKLLERTRARRENLQRKMAERPTAAPRSMTHAKRARQPLSEASNQQPLSGGEEKSCTKPSPSKKRCSDNTEVEVSNLENKQPVESTSAKSCSPSPVSPQVQPQAADTISDSVAVPASLLGMRRGLNSRLEATAASSVKTRMQKLAEQRRRWDNDDMTDDIPESSLFSPMPSEEKAASPPRPLLSNASATPVGRRGRLANLAATICSWEDDVNHSFAKQNSVQEQPGTACLSKFSSASGASARINSSSVKQEATFCSQRDGDASLNKALSSSADDASLVNASISSSVKATSPVKSTTSITDAKSCEGQNPELLPKTPISPLKTGVSKPIVKSTLSQTVPSKGELSREICLQSQSKDKSTTPGGTGIKPFLERFGERCQEHSKESPARSTPHRTPIITPNTKAIQERLFKQDTSSSTTHLAQQLKQERQKELACLRGRFDKGNIWSAEKGGNSKSKQLETKQETHCQSTPLKKHQGVSKTQSLPVTEKVTENQIPAKNSSTEPKGFTECEMTKSSPLKITLFLEEDKSLKVTSDPKVEQKIEVIREIEMSVDDDDINSSKVINDLFSDVLEEGELDMEKSQEEMDQALAESSEEQEDALNISSMSLLAPLAQTVGVVSPESLVSTPRLELKDTSRSDESPKPGKFQRTRVPRAESGDSLGSEDRDLLYSIDAYRSQRFKETERPSIKQVIVRKEDVTSKLDEKNNAFPCQVNIKQKMQELNNEINMQQTVIYQASQALNCCVDEEHGKGSLEEAEAERLLLIATGKRTLLIDELNKLKNEGPQRKNKASPQSEFMPSKGSVTLSEIRLPLKADFVCSTVQKPDAANYYYLIILKAGAENMVATPLASTSNSLNGDALTFTTTFTLQDVSNDFEINIEVYSLVQKKDPSGLDKKKKTSKSKAITPKRLLTSITTKSNIHSSVMASPGGLSAVRTSNFALVGSYTLSLSSVGNTKFVLDKVPFLSSLEGHIYLKIKCQVNSSVEERGFLTIFEDVSGFGAWHRRWCVLSGNCISYWTYPDDEKRKNPIGRINLANCTSRQIEPANREFCARRNTFELITVRPQREDDRETLVSQCRDTLCVTKNWLSADTKEERDLWMQKLNQVLVDIRLWQPDACYKPIGKP

binding: binds
B2: Flag-E841K (ANLN E841K) (protein, UniProt Q9NQW6-1 1-1124)
chain: B1 chain with E841K
